This is an account of results in PubChem BioAssay AID248 (DTP/NCI, 2004).

The list does not hold the whole screen: it is rich in T/C values a quarter to a half above the control, in often repeated tests (any T/C) and in doses without a T/C. Further doses and runs are listed elsewhere. T/C gives the treated animals as a percentage of the vehicle group. Some entries give survivors of the animals treated and no T/C: the source holds a T/C of zero for them, seemingly a mark for toxic or unscored doses. Some survivor counts are full or nearly so, which does not show that the dose was tolerated: the source hardly ever lists a survival T/C far under the control, and the zero likely stands for such cases as well. Survivors were counted at the toxicity check, usually on the fifth day, unless a day is given; later deaths do not show. Schedule codes are those of the source, read here as Q, the interval in days (D) or hours (H), X, the number of doses. Some schedules carry Z or #; the key to these is not given. Where survival is the endpoint, this PubChem deposit counts one and a half times the control or more as active, and values a quarter to a half above the control carry no call in these data; other NCI protocols may use other cut-offs.

The test system of the assay is L1210 leukemia ip in BDF1 mice, survival T/C. In words: NCI In Vivo Anticancer Drug Screen. Data for tumor model L1210 Leukemia (intraperitoneal) in B6D2F1 (BDF1) mice. The note with it: T/C endpoint: mean survival time, higher T/C = longer survival.
Setting [1] is: dose: 150.0 mg/kg/injection, schedule: Q01DX001 (ip), vehicle: other.
[2] abbreviates: dose: 300.0 mg/kg/injection, schedule: Q01DX001 (ip), vehicle: other.
Where [3] appears, read: dose: 200.0 mg/kg/injection, schedule: Q04DX003 (ip), vehicle: saline.
Setting [4] is: dose: 400.0 mg/kg/injection, schedule: Q04DX003 (ip), vehicle: saline.
Where [5] appears, read: dose: 400.0 mg/kg/injection, schedule: Q01DX001 (ip), vehicle: saline.
[6] abbreviates: dose: 400.0 mg/kg/injection, schedule: Q04DX003 (ip), vehicle: saline with Tween-80.
[7] abbreviates: dose: 100.0 mg/kg/injection, schedule: Q01DX009 (ip), vehicle: saline.

`CC(=O)[OH2+].CC(=O)[OH2+].[O-]c1ccc2ccccc2c1CN1CCCCC1.[O-]c1ccc2ccccc2c1CN1CCCCC1.[O]=[U+2]=[O].[O]=[U+2]=[O]`: the survivor count runs as follows: (dose: 20.0 mg/kg/injection, schedule: Q01DX001 (ip), vehicle: other) 1 of 4; (dose: 40.0 mg/kg/injection, schedule: Q01DX001 (ip), vehicle: other) 1 of 4; (dose: 80.0 mg/kg/injection, schedule: Q01DX001 (ip), vehicle: other) 0 of 4.

Consider `[N-]=[N+]=Nc1nc(Cl)nc2c1ncn2Cc1ccccc1`, for which the survivor count reads like this: under setting [1], 0 of 6; under setting [2], 0 of 6.

As to `O=C1c2ccccc2C[CH]1[Hg][Cl]` (stereo not given), the survivor count is listed as 1 of 6 (dose: 20.0 mg/kg/injection, schedule: Q01DX001 (ip), vehicle: saline); 0 of 6 (dose: 40.0 mg/kg/injection, schedule: Q01DX001 (ip), vehicle: saline); 0 of 6 (dose: 80.0 mg/kg/injection, schedule: Q01DX001 (ip), vehicle: saline).

As to `CCN=C(N)Nc1ccc(NC(=O)c2ccc(C(=O)Nc3ccc(NC(N)=NCC)cc3)cc2)cc1`, the T/C was 125 % of control (dose: 0.5 mg/kg/injection, schedule: Q01DX Z (ip), vehicle: carboxymethylcellulose (CMC)); 131 % of control (dose: 14.0 mg/kg/injection, schedule: Q01DX001 (ip), vehicle: carboxymethylcellulose (CMC)); 144 % of control (dose: 14.0 mg/kg/injection, schedule: Q01DX001 (ip), vehicle: other). Besides, the survivor count (dose: 64.0 mg/kg/injection, schedule: Q01DX Z (ip), vehicle: carboxymethylcellulose (CMC)) is recorded as 0 of 6; the survivor count (dose: 720.0 mg/kg/injection, schedule: Q01DX001 (ip), vehicle: carboxymethylcellulose (CMC)) is listed as 0 of 10; the survivor count (dose: 720.0 mg/kg/injection, schedule: Q01DX001 (ip), vehicle: other) is reported as 0 of 10; the survivor count (dose: 1080.0 mg/kg/injection, schedule: Q01DX001 (ip), vehicle: carboxymethylcellulose (CMC)) was 1 of 10; the survivor count (dose: 1080.0 mg/kg/injection, schedule: Q01DX001 (ip), vehicle: other) is 0 of 10.

For the compound `CC(C)(C)C#CCCl`, the survivor count (dose: 300.0 mg/kg/injection, schedule: Q01DX009 (ip), vehicle: saline) was 1 of 6.

Take `O=C(O)C(O)Cc1ccccc1` (stereo not given): the T/C under setting [3] was 128 % of control. Moreover, the survivor count under setting [4] was 5 of 6.

Turning to `NC1=NCCS1`, the survivor count is listed as 0 of 3 (dose: 200.0 mg/kg/injection, schedule: Q04DX002 (ip), vehicle: saline) and 0 of 3 (dose: 400.0 mg/kg/injection, schedule: Q04DX002 (ip), vehicle: saline).

Consider `Clc1cccc(C[N+]23CC[N+](Cc4cccc(Cl)c4)(CC2)C3)c1`, for which the survivor count under setting [5] is 0 of 4.

With `OCCC1CC1=C1CC1` (stereo not given), the survivor count (dose: 200.0 mg/kg/injection, schedule: Q01DX009 (ip), vehicle: Klucel (hydroxypropylcellulose) (HPC)) is 0 of 6.

`CCCC(Br)C(=O)OCC` (stereo not given): the survivor count under setting [6] is on record as 6 of 6.

Take `CC(=O)OC1C(CO)OC(n2ccc3c(N)ncnc32)C1O` (stereo not given): the survivor count is on record as 5 of 6 (dose: 75.0 mg/kg/injection, schedule: Q01DX001 (ip), vehicle: saline); 1 of 6 (dose: 150.0 mg/kg/injection, schedule: Q01DX001 (ip), vehicle: saline); 0 of 6 (dose: 300.0 mg/kg/injection, schedule: Q01DX001 (ip), vehicle: saline).

On to `OC(c1cc2c3c(c1)CCCN3CCC2)(C(F)(F)F)C(F)(F)F`, for which the survivor count under setting [6] is on record as 0 of 6.

As to `CC(C)CNNCC(C)C`, the survivor count under setting [1] is reported as 3 of 6 and the survivor count under setting [2] is 0 of 6.

For the compound `C[SH+]c1ccccc1N=Cc1ccccn1.C[SH+]c1ccccc1N=Cc1ccccn1.[Ni+2].[O-][Cl+3]([O-])([O-])[O-]`, the survivor count under setting [5] is 0 of 4.

`C[Se]c1ncnc2c(C3OC(CO)C(O)C3O)[nH]nc12` (stereo not given): the survivor count runs as follows: (dose: 100.0 mg/kg/injection, schedule: Q01DX005 (ip), vehicle: saline) 0 of 6; (dose: 200.0 mg/kg/injection, schedule: Q01DX005 (ip), vehicle: saline) 0 of 6.

`N#CCc1ccc([N+](=O)[O-])cc1`: the survivor count runs as follows: (dose: 50.0 mg/kg/injection, schedule: Q01DX009 (ip), vehicle: Klucel (hydroxypropylcellulose) (HPC)) 2 of 6; (dose: 100.0 mg/kg/injection, schedule: Q04DX003 (ip), vehicle: Klucel (hydroxypropylcellulose) (HPC)) 0 of 6; (dose: 200.0 mg/kg/injection, schedule: Q04DX003 (ip), vehicle: Klucel (hydroxypropylcellulose) (HPC)) 0 of 6; (dose: 400.0 mg/kg/injection, schedule: Q04DX003 (ip), vehicle: Klucel (hydroxypropylcellulose) (HPC)) 0 of 6.

Take `C=CCOCC(O)CN(CCCC)CCCC` (stereo not given): where the note is “dose: 100.0 mg/kg/injection, schedule: Q01DX009 (ip), vehicle: saline with Tween-80”, the survivor count is recorded as 0 of 6.

`CCCCNC(=O)Nc1ccc(Nc2ccccc2)cc1`: where the note is “dose: 400.0 mg/kg/injection, schedule: Q01DX009 (ip), vehicle: gum acacia”, the survivor count is recorded as 6 of 6.

Consider `O=C(O)CCC1(CCC(=O)O)OCCO1.[Ag]`, for which the survivor count was 0 of 6 (dose: 75.0 mg/kg/injection, schedule: Q01DX001 (ip), vehicle: other); 0 of 6 under setting [1]; 2 of 6 under setting [2].

As for `CC(=O)OC1CC2(Cl)C(Cl)=C(Cl)C1(Cl)C2(Cl)Cl` (stereo not given), the survivor count under setting [3] is listed as 6 of 6.

Take `O=C1c2ccccc2C(=O)N1CNc1ccc(Oc2ccc(Cl)cc2)cc1`: where the note is “dose: 400.0 mg/kg/injection, schedule: Q01DX009 (ip), vehicle: saline with Tween-80”, the survivor count was 5 of 6.

Regarding `COc1cc(C=Nc2ccc3c(c2)ncn3C)ccc1N(CCCl)CCCl`, the survivor count by setting is: (dose: 200.0 mg/kg/injection, schedule: Q04DX002 (ip), vehicle: Klucel (hydroxypropylcellulose) (HPC)) 3 of 3; (dose: 400.0 mg/kg/injection, schedule: Q04DX002 (ip), vehicle: Klucel (hydroxypropylcellulose) (HPC)) 0 of 3.

As to `CC[NH-].CC[NH-].[I][Pt+2][I]`, the survivor count is on record as 2 of 6 under setting [7], 6 of 6 under setting [3] and 4 of 6 under setting [4].

As for `Oc1cccnc1CN1CCCCC1`, the survivor count under setting [3] is reported as 0 of 6.

As to `CCCCN(C(=O)OCC)P(=O)(OCC)OCC`, under “dose: 400.0 mg/kg/injection, schedule: Q01DX009 (ip), vehicle: saline”, the survivor count was 0 of 6.

Regarding `CCCCCC[Se]CCCCCC`, the survivor count was 0 of 6 under setting [7]; 0 of 6 (dose: 200.0 mg/kg/injection, schedule: Q01DX009 (ip), vehicle: saline); 1 of 6 under setting [3]; 0 of 6 under setting [4].
